Source: paper PMC12015365
No constants are given. Whether binding was seen depends on the method and setting. Some entries that bind do so weakly or less than the wild type. Tags and fused reporters may be left off the sequences shown.

The chains behind the UniProt entries cited, without tags or fusion partners.
UniProt Q13200: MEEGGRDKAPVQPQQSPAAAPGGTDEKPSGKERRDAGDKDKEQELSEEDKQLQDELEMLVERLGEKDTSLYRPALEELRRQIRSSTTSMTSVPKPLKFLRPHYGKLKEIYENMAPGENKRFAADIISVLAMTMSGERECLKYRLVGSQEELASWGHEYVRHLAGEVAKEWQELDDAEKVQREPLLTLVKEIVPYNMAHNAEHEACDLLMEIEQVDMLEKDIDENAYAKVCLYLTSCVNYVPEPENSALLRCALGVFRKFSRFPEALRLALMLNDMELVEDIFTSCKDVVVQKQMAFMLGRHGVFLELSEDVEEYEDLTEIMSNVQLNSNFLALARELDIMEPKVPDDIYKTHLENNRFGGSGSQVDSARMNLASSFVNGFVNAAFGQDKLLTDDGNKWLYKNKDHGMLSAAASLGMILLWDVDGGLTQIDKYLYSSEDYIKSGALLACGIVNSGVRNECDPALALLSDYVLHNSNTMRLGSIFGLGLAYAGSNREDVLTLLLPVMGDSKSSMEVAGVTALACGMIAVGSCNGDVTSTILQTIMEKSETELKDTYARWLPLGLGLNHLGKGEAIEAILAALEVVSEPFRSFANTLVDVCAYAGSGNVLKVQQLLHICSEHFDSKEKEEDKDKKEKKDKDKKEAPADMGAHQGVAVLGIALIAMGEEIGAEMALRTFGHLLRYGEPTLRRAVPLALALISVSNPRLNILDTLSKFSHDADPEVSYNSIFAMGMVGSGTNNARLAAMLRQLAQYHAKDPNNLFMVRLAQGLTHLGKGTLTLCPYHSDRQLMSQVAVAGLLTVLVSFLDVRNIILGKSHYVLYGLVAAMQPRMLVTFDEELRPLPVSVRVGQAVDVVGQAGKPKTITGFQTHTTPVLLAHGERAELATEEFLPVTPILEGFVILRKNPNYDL

Biological target: T1, glucosidase alpha, neutral C (GANC) tagged with Flag (human) (UniProt Q8TET4)
T1 sequence: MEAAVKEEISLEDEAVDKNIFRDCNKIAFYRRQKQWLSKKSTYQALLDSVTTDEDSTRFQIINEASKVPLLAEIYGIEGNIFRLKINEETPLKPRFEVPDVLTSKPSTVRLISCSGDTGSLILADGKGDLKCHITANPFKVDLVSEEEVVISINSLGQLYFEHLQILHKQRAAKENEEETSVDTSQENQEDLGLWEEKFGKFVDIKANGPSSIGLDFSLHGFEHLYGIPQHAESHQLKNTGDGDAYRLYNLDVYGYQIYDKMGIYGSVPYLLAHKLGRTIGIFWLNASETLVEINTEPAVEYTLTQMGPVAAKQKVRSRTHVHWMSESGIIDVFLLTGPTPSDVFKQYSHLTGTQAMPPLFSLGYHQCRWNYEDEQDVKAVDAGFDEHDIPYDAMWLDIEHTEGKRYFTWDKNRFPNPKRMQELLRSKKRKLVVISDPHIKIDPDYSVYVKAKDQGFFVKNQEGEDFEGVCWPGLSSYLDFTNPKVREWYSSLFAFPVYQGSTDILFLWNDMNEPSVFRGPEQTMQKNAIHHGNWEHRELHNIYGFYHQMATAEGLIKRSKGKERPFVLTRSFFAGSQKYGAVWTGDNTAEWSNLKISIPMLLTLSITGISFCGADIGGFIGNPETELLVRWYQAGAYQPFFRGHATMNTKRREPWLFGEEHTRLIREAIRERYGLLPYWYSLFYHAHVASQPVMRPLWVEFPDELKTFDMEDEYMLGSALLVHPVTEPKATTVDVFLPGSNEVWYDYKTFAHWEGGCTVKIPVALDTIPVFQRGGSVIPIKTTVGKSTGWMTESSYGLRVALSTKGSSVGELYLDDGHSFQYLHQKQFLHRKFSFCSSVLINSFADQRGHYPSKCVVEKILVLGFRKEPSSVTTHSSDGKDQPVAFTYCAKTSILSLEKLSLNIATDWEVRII
Assay: pull-down; both purified

PSMD2 protein tagged with HA, purified from E. coli (from UniProt Q13200 1-908)
binding: binds
